This passage reports Ki results from US12637428B2, “Isoquinoline derivatives as SIK2 inhibitors” (Cancer Research Technology Limited, priority 2019, dated 2026).

Amino acid sequences for entries named in this document (tags omitted). Residues count along the entry.
UniProt Q9Y2K2, whole entry: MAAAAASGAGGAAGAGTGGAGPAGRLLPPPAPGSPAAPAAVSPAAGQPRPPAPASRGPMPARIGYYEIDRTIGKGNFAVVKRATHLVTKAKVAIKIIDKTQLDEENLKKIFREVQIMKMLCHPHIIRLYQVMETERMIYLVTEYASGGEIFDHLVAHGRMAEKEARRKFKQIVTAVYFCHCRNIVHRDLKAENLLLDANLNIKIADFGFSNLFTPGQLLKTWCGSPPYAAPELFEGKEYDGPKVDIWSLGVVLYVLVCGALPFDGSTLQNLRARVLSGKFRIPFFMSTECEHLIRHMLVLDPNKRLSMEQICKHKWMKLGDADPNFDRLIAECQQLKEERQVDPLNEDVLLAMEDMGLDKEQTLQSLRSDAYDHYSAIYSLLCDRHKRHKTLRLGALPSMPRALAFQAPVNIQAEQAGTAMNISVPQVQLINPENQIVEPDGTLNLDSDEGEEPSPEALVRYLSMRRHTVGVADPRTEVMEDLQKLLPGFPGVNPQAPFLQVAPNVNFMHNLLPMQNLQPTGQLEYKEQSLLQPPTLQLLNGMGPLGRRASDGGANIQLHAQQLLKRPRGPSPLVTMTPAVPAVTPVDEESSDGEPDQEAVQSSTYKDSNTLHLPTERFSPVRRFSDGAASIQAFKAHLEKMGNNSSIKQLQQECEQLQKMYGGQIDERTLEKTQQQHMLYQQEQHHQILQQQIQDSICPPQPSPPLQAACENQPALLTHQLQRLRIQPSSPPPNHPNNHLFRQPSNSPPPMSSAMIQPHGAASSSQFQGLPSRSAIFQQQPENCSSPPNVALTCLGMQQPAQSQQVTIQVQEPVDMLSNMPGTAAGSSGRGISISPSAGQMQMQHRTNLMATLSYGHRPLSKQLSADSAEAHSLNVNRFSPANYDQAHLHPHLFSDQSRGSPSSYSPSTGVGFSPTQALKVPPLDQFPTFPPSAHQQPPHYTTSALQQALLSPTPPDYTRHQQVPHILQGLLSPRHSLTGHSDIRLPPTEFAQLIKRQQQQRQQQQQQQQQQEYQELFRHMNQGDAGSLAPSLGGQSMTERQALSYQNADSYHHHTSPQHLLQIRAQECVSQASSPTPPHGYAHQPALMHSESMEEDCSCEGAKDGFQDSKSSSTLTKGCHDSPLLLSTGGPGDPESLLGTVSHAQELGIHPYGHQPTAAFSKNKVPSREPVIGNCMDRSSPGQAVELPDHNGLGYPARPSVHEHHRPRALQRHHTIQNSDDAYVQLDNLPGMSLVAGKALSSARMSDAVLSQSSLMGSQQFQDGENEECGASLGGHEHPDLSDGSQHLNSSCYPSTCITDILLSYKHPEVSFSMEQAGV
UniProt Q9H0K1, whole entry: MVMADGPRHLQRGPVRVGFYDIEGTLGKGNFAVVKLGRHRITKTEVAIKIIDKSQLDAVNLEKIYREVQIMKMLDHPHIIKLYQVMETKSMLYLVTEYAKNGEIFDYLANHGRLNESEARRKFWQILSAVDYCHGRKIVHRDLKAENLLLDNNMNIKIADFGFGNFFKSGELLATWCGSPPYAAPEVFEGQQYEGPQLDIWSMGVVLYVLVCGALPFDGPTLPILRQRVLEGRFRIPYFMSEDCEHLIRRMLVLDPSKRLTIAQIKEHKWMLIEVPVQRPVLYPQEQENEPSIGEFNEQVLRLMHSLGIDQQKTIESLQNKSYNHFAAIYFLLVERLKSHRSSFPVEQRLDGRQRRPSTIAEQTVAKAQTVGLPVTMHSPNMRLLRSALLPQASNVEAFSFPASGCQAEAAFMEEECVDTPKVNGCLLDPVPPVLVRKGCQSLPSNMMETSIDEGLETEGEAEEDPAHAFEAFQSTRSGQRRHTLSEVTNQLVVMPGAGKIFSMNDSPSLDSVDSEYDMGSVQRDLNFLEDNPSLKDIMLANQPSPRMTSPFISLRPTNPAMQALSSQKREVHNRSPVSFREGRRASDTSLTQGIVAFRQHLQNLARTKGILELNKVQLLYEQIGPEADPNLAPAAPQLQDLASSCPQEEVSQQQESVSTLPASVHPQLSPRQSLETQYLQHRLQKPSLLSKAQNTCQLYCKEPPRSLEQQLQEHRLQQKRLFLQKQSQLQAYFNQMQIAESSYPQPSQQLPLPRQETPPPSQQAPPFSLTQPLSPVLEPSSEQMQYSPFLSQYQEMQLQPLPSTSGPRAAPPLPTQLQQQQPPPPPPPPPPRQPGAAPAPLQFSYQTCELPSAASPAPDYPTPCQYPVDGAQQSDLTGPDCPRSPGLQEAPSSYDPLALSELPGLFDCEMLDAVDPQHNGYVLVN
UniProt P29317, 24-976 limits assumed: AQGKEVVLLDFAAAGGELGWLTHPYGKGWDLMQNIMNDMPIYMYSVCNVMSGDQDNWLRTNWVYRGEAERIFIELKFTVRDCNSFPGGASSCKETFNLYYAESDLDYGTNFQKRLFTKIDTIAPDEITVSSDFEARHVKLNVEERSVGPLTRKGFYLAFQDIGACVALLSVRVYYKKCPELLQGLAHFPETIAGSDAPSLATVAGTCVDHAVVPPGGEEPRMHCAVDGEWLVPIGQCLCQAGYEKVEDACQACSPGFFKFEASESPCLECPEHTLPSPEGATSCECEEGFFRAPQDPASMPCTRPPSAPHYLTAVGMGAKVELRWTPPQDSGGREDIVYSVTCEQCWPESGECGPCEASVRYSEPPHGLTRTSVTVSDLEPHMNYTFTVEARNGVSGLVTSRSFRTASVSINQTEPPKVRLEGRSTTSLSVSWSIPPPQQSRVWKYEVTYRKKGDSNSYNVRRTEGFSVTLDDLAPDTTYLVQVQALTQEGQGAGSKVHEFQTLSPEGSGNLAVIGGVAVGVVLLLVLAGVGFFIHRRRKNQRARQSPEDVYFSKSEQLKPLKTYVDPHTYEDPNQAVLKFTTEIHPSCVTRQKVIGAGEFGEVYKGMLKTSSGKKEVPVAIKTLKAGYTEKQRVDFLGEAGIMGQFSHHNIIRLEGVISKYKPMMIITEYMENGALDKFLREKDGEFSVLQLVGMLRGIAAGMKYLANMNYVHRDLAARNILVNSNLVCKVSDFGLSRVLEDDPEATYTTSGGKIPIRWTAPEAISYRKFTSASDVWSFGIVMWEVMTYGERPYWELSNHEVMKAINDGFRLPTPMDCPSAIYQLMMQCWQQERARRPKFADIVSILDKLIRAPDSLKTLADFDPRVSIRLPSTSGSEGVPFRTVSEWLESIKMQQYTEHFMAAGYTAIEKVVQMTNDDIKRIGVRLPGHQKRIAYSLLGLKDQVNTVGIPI
UniProt P00519, whole entry: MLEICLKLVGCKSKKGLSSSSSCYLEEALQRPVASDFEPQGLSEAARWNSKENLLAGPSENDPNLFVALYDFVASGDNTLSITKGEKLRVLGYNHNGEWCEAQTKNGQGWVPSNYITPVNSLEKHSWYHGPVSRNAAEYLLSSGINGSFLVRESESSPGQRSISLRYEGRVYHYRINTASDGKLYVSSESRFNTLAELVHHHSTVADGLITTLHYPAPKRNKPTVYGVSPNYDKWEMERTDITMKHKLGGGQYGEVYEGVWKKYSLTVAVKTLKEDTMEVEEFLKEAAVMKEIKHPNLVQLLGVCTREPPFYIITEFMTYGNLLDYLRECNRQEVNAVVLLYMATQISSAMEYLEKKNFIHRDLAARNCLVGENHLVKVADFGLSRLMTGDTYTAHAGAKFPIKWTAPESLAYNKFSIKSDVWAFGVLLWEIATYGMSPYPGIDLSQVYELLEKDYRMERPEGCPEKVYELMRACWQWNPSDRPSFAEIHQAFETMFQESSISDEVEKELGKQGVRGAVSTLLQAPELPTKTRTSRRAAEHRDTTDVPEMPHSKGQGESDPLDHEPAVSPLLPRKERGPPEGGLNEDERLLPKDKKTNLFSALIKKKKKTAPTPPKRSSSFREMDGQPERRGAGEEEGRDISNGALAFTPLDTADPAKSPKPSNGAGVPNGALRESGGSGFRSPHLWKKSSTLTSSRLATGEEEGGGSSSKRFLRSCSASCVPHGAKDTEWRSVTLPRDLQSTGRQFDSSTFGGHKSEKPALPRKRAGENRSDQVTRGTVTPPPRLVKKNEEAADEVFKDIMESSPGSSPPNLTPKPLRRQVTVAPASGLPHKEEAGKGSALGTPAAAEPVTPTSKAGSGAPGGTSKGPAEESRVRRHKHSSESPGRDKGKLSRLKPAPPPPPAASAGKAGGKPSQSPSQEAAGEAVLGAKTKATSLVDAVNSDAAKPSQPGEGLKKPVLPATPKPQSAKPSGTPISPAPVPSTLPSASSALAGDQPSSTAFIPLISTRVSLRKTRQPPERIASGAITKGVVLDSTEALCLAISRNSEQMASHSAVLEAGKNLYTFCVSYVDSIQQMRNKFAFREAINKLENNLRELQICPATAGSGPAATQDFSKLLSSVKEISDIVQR
UniProt P57059, whole entry: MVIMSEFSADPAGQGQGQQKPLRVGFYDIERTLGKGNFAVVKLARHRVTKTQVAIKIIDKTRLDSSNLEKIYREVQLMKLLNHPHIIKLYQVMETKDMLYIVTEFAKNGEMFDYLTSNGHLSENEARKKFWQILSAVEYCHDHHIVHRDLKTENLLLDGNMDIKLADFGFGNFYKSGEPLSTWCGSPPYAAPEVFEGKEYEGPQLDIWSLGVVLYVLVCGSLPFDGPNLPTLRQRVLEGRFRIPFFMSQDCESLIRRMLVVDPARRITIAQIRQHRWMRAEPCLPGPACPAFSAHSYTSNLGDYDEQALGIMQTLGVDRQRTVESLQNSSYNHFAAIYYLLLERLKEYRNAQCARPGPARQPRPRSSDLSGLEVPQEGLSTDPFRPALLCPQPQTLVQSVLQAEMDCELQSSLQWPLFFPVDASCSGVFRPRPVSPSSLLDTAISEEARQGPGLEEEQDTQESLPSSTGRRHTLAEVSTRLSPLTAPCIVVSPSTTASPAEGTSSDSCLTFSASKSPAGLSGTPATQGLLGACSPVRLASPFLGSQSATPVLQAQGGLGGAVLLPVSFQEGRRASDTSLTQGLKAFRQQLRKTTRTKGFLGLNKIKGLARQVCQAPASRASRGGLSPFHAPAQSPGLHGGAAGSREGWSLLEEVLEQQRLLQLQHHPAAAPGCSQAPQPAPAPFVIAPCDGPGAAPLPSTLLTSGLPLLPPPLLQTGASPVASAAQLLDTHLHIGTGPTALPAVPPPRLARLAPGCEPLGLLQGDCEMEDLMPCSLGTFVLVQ
UniProt P12931, whole entry: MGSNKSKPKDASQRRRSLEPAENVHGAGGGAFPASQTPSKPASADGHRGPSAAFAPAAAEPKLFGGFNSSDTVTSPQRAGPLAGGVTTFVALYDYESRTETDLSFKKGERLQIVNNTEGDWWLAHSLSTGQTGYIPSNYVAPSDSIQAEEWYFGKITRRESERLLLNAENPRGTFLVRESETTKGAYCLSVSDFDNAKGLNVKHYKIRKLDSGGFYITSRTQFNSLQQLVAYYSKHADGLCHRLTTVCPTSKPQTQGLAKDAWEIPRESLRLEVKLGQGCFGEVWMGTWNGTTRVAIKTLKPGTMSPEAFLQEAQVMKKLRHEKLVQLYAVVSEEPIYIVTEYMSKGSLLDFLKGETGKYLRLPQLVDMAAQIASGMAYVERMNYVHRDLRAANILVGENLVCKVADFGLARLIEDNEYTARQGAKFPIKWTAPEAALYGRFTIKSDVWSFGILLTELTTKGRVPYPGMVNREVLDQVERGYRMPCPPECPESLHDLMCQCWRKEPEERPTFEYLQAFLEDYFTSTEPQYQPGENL

One assay has as its target SIK3 (Homo sapiens, UniProt Q9Y2K2). Kind of assay: SIK3 kinase assay, IMAP fluorescence polarization. Conditions: read-out: SIK3 - AVERAGE Ki, 50 or 100 μM ATP. The protocol:
(§1) SIK2, SIK1, SIK3, Abl, Src and EPHA2 Kinase Assays
(§2) SIK2, SIK1, SIK3, Abl, Src and EPHA2 assays were performed using an IMAP fluorescence polarization assay format (Molecular Devices Inc.). 0.6-13 nM of each kinase (Life Technologies) was incubated for 60 min at room temperature with 100 nM of either FAM-Abltide, FAM-Srctide or FAM-HDAC protein derived peptide (synthesized by Alta Biosciences, Birmingham UK). Assays were carried out in the presence of 50 or 100 μM ATP in either 20 mM Tris buffer (pH 7.2) containing 4 mM MgCl2, 0.2% BSA and 2 mM DTT (SIK2, SIK1, SIK3, Abl, Src); or 20 mM Tris buffer (pH 8.5) containing 20 mM MgCl2, 0.5% BSA, 0.2% Triton and 5 mM DTT (EPHA2). Typically, dose response analyses were performed over concentration ranges from 0.00005-1 μM. Reactions were stopped by adding 2 assay volumes of 0.25% (v/v) IMAP binding reagent in either an 85:15 ratio (SIK2, SIK1, SIK3, Abl, EPHA2) or 30:70 ratio (Src) of IMAP binding buffers A and B (Molecular Devices). After incubation to allow the detection reagents to bind to the phosphorylated peptide, fluorescence polarization was measured on a Tecan Infinite plate reader at excitation (470 nm) and emission (530 nm) wavelengths. Inhibition was calculated using no inhibitor and no enzyme controls as 0 and 100% inhibition, respectively. […]
A general note: Polarisation of emitted light reports the rotation of a fluorescent probe.

The next assay has as its target SIK2 (Homo sapiens, UniProt Q9H0K1). The experiment in a line: SIK2 kinase assay, IMAP fluorescence polarization. Conditions: read-out: SIK2 - AVERAGE Ki, 50 or 100 μM ATP. The protocol:
as §1, §2

For the next assay, the target named is EPHA2 (Homo sapiens, UniProt P29317). The experiment in a line: EPHA2 kinase assay, IMAP fluorescence polarization. To be noted: read-out: EPHA2 - AVERAGE Ki, 50 or 100 μM ATP, Tris pH 8.5. As for the experimental part:
as §1, §2

A further assay concerns the target Abl (Homo sapiens, UniProt P00519). Kind of assay: Abl kinase assay, IMAP fluorescence polarization. To be noted: read-out: Abl - AVERAGE Ki, 50 or 100 μM ATP. The protocol:
as §1, §2

The target in a further assay is SIK1 (Homo sapiens, UniProt P57059). Kind of assay: SIK1 kinase assay, IMAP fluorescence polarization. To be noted: read-out: SIK1 - AVERAGE Ki, 50 or 100 μM ATP. As for the experimental part:
as §1, §2

The next assay addresses Src (Homo sapiens, UniProt P12931). Kind of assay: Src kinase assay, IMAP fluorescence polarization. To be noted: read-out: Src - AVERAGE Ki, 50 or 100 μM ATP. As for the experimental part:
as §1, §2

The structures given here were assigned with low confidence; some may be wrong.

What is called Ki is a dissociation constant, usually derived from enzyme kinetics or from competition with a known ligand. Take `Cc1cccc(F)c1-c1cc(NC[C@H]2CCCCN2)c2cc(N)ncc2c1`: the Ki is 8.93 nM on SIK3; 0.376 nM on SIK2; over 1000 nM at EPHA2; 74.1 nM on Abl; 1.74 nM on SIK1; 261 nM at Src.
